Assay results: the supplement of paper PMC10849652
The list shows a part of the results. Residues, ends and D or L forms follow the SMILES beside them. *: point of attachment. Cbz = O=C(OCc1ccccc1)*

Protein sequences, listed by entry. Tags and fused reporters are not part of them. Lines headed by an entry give the natural chain unless they say otherwise; changes in a name come on top.
UniProt P09669, whole entry, looked up: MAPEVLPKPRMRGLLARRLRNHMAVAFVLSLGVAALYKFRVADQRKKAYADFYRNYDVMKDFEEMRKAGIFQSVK
UniProt Q9H0A8, whole entry, looked up: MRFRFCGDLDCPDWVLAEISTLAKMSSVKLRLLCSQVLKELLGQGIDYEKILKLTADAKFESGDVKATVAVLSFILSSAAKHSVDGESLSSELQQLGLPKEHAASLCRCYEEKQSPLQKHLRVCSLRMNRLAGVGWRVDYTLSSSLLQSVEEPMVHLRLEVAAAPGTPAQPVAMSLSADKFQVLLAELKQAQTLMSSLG
UniProt P57737: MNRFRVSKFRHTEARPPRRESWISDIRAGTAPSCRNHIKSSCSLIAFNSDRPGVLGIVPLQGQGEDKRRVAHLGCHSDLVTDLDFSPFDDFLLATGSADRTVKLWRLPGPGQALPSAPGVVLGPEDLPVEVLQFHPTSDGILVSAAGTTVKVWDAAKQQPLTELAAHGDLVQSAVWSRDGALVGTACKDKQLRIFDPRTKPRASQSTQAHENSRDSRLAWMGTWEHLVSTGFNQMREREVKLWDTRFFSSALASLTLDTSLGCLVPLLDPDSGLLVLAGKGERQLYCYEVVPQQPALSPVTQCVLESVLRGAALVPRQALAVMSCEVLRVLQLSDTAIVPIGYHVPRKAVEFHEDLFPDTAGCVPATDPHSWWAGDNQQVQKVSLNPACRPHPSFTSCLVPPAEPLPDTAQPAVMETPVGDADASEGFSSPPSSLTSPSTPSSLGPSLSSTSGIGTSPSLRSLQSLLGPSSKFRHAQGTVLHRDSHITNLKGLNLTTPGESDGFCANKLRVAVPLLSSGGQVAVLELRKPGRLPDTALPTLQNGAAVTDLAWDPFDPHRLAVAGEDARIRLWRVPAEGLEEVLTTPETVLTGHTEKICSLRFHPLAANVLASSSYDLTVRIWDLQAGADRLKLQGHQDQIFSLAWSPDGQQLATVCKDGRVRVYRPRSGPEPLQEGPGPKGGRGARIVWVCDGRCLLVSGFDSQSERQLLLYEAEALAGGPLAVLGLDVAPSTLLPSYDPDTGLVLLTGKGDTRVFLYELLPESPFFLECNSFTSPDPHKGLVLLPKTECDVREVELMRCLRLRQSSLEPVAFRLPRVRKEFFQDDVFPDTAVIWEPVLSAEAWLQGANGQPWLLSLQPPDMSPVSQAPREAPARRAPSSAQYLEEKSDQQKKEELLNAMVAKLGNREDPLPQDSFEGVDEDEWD
UniProt P61923: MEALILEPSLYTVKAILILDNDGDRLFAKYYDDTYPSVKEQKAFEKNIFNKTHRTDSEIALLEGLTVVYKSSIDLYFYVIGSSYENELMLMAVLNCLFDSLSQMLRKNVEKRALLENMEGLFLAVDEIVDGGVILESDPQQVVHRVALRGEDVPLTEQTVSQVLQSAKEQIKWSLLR
UniProt Q7L5N1: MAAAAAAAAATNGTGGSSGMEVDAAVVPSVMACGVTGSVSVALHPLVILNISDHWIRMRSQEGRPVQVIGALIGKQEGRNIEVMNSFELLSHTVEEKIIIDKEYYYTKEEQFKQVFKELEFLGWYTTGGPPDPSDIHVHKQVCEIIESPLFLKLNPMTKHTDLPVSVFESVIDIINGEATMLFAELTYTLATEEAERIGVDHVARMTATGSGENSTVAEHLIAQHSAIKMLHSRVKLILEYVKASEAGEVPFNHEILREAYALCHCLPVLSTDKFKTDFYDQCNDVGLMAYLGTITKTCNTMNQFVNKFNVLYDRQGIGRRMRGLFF
UniProt Q9NZJ6: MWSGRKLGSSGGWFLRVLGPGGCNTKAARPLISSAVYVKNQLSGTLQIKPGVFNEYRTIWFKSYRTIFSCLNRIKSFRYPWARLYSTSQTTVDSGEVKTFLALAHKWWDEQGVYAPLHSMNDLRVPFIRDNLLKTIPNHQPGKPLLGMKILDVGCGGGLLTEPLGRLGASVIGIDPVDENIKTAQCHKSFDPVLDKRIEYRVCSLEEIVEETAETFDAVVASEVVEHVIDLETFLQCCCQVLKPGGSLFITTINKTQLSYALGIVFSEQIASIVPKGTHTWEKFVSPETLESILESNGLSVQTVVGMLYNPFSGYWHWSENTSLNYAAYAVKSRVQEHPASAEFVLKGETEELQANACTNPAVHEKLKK
UniProt Q99829: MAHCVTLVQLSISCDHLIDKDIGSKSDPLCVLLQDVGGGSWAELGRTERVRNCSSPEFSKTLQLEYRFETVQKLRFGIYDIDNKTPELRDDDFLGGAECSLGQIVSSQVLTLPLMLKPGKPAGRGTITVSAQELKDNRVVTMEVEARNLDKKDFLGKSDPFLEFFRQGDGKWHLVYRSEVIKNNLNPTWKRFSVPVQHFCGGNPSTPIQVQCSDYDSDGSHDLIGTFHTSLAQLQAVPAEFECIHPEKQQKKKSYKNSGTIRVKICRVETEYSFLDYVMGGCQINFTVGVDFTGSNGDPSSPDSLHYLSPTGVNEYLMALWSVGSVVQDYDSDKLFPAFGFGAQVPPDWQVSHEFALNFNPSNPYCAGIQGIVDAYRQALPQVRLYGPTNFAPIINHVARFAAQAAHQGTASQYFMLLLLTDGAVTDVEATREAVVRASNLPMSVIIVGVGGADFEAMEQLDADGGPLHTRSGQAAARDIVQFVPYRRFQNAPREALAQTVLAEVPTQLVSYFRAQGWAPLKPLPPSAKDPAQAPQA
UniProt A4D126: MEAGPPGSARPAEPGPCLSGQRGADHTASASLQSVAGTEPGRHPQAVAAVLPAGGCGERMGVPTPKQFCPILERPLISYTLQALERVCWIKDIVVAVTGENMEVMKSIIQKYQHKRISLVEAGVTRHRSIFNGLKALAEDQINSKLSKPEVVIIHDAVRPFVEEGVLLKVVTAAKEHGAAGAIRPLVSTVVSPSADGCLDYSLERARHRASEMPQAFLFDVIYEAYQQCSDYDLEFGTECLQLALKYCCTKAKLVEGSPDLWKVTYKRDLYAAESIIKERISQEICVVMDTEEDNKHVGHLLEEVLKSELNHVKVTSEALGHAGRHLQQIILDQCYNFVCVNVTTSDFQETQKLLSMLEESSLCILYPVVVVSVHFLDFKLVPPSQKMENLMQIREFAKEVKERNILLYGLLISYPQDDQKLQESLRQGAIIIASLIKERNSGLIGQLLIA
UniProt Q86VX2, whole entry, looked up: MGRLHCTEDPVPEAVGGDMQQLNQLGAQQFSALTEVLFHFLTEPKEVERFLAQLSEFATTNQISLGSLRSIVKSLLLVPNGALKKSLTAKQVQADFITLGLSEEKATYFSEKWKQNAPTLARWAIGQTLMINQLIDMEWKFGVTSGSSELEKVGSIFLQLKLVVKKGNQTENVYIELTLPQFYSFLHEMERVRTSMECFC
UniProt O14548: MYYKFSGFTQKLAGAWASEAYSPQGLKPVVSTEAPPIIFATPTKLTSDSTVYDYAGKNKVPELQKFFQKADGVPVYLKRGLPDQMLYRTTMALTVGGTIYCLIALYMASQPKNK
UniProt O75718: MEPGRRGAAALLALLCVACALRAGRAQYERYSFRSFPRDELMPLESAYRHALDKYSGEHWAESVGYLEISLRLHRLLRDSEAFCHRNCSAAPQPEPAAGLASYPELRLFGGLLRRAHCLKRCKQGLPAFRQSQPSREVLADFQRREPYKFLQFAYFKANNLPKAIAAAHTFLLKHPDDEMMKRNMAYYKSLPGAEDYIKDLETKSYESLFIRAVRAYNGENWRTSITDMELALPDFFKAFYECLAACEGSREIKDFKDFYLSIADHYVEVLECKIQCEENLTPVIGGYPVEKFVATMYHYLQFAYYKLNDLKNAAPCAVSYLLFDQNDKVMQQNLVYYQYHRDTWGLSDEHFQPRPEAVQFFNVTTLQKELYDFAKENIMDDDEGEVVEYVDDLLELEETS
UniProt Q9Y6N1: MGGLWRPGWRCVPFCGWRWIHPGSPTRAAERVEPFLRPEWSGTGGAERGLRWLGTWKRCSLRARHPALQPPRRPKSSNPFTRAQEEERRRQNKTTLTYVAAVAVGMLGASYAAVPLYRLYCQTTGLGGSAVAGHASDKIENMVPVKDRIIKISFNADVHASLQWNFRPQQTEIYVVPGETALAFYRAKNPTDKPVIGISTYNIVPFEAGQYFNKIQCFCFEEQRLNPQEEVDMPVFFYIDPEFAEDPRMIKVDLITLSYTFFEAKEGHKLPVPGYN
UniProt Q9UBF2: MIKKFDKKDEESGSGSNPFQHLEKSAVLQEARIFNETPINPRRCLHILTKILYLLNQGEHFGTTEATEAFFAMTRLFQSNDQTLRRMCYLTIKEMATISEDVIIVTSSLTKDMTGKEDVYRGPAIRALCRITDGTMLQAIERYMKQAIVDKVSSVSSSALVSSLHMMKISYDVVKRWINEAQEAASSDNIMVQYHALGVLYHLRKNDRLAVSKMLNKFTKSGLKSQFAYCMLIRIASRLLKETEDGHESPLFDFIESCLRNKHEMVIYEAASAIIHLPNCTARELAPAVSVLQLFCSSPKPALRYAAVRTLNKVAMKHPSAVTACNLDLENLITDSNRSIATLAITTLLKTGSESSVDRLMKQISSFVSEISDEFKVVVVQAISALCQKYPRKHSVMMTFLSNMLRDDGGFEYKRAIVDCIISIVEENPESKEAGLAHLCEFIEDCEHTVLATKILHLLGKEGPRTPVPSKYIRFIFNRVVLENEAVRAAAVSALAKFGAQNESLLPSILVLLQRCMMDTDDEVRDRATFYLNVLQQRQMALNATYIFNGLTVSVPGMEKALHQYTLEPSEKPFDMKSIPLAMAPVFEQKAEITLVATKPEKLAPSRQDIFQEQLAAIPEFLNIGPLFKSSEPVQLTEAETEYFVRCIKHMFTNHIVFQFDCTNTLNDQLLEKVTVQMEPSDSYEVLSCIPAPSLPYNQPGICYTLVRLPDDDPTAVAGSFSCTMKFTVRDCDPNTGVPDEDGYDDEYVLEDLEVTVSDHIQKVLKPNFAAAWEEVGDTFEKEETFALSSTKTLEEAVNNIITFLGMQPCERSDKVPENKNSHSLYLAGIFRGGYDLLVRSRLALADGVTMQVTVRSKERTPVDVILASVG
UniProt Q12887: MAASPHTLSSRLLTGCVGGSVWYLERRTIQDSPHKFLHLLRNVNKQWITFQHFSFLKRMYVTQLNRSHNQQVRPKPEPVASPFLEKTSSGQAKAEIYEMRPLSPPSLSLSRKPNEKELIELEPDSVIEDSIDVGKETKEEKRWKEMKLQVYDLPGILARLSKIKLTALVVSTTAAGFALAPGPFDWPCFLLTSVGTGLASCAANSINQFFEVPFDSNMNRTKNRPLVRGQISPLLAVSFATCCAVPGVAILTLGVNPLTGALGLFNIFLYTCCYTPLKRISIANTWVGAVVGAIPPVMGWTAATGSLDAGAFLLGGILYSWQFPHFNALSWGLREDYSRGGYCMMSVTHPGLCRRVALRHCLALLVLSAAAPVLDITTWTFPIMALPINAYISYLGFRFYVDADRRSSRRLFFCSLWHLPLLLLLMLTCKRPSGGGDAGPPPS
UniProt P53621: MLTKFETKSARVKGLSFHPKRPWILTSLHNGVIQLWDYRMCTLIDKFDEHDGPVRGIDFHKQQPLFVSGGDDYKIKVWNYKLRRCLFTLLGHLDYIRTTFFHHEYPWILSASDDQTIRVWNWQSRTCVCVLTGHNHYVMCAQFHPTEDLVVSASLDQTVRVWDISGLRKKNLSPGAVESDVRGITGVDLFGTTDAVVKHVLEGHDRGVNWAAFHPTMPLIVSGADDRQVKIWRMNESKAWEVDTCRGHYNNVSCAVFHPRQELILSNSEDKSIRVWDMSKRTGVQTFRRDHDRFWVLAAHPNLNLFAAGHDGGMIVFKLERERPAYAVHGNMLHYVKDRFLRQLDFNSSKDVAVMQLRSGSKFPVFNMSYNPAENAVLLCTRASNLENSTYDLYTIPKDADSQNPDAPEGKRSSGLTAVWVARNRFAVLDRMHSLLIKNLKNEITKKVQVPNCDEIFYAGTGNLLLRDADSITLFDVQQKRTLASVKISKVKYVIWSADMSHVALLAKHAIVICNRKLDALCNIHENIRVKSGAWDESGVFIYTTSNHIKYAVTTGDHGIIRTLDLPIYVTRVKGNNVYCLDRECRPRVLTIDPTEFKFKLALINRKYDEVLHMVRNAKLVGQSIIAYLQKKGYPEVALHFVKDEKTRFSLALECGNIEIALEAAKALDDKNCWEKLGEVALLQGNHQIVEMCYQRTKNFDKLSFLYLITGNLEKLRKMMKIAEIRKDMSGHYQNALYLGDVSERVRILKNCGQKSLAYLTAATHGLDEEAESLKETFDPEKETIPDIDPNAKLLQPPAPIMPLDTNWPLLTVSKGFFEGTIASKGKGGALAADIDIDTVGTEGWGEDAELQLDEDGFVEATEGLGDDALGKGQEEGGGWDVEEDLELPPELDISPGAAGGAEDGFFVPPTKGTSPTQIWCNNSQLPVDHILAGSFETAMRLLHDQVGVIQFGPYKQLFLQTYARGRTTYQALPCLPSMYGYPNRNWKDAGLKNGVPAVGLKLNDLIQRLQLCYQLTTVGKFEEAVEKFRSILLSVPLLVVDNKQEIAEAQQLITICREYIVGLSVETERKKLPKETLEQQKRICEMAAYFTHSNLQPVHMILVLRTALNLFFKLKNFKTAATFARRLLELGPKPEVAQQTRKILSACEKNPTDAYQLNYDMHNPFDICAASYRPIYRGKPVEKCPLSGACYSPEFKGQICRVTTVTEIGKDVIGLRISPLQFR

Assays:
Assay in all cases: log2 fold change, soluble protein after heating vs DMSO (PISA); higher = thermal stabilisation; K562 cells, 10 uM, 30 min; active = over 0.2 and 3.5 SD of the protein, either way, in both replicates (recomputed)
erlotinib = compound: C#Cc1cccc(Nc2ncnc3cc(OCCOC)c(OCCOC)cc23)c1 [erlotinib]
In short: (§1)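 Thermal stability values are relative to control samples and come from duplicates. They are expressed as log2 fold changes. For measurement, K562 cells (2×10^6 cells/mL) received 10 μM compound for 30 min, and aliquots were heated for 3 min over 48°C-58°C, pooled, and extracted at 4°C in PBS with 0.5% NP-40. Soluble protein, the supernatant after 21,000xg for 90 min, was quantified by TMTpro 16plex LC-MS/MS with equalised channel sums.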

[1] = compound: C/C(=N\NC(=O)C1=CC(=CC=C1)S(=O)(=O)N2CCOCC2)/C3=C(C=CC(=C3)Cl)O
In short: as §1

[2] = compound: C1=CC(=C(C=C1Cl)C2=NC3=NC=CN=C3C(=N2)NC4=CC=NC=C4)F
In short: as §1

[3] = compound: C1=CC(=CC=C1C2=NC3=C(N2)C=C(C=C3)C(=O)N)OC4=CC=C(C=C4)Cl
In short: as §1

[4] = compound: C1=CC2=C(C=CC(=C2)/C=C\3/C(=O)NC(=NCC4=CC=CS4)S3)N=C1
In short: as §1

[5] = compound: C1=CC2=NC=CN=C2C=C1/C=C/3\C(=O)NC(=O)S3
In short: as §1

[6] = compound: C1=CC=C(C=C1)C2=NC(=C(N2)C3=CC=NC=C3)C4=CC(=C(C=C4)Cl)O
In short: as §1

[7] = compound: C1=CC=C2C(=C1)C3=NNC4=CC=CC(=C43)C2=O
In short: as §1

[8] = compound: C1CCN(C1)C(=O)NC2=CC=CC(=C2)NC3=NC=C(C(=N3)NCCC4=CN=CN4)Br
In short: as §1

[9] = compound: C1CN(CCC1(CC2=CC=C(C=C2)Cl)N)C3=NC=NC4=C3C=CN4
In short: as §1

IRAK-1-4 Inhibitor I = compound: C1COCCN1CCN2C3=CC=CC=C3N=C2NC(=O)C4=CC(=CC=C4)[N+](=O)[O-] [IRAK-1-4 Inhibitor I]
In short: as §1

ibrutinib = compound: C=CC(=O)N1CCC[C@@H](n2nc(-c3ccc(Oc4ccccc4)cc3)c3c(N)ncnc32)C1 [ibrutinib]
In short: as §1

[10] = compound: CC(=O)c1cnc2ccc(-c3cc(Cl)c(O)c(Cl)c3)nc2c1N[C@H]1CC[C@H](CN(C)C)CC1
In short: as §1

ralimetinib = compound: CC(C)(C)Cn1c(N)nc2ccc(-c3[nH]c(C(C)(C)C)nc3-c3ccc(F)cc3)nc21 [ralimetinib]
In short: as §1

[11] = compound: CC(C)(O)CC(=O)NCCn1ccc2ncnc(Nc3ccc(Oc4cccc(C(F)(F)F)c4)c(Cl)c3)c21
In short: as §1

[12] = compound: CC(C)C1=C2N=C(C=C(N2N=C1)NCC3=CC=CC=C3)NCCCCCCN
In short: as §1

[13] = compound: CC(C)C[C@@H](C=O)NC(=O)[C@H](CC(C)C)NC(=O)[C@H](CC(C)C)NC(=O)OCc1ccccc1
In short: as §1

pinometostat = compound: CC(C)N(C[C@H]1O[C@@H](n2cnc3c(N)ncnc32)[C@H](O)[C@@H]1O)[C@H]1C[C@@H](CCc2nc3cc(C(C)(C)C)ccc3[nH]2)C1 [pinometostat]
In short: as §1

[14] = compound: CC1=C(C(CC(=O)N1)C2=CC=C(C=C2)C(F)(F)F)C(=O)NC3=C(C=C4C(=C3)C=NN4)F
In short: as §1

[15] = compound: CC1=C(C2=C(C=C1)C(=O)C3=CC=CC=C3N2CCCN)C
In short: as §1

Measured: log2 fold change

COX6C (UniProt P09669)
inactive: erlotinib -0.013 | [1] 0.036 | [2] 0.042 | [3] -0.032 | [4] 0.021 | [5] 0.001 | [6] 0.024 | [7] 0.012 | [8] -0.017 | [9] -0.02 | IRAK-1-4 Inhibitor I -0.031 | ibrutinib -0.098 | [10] 0.047 | ralimetinib -0.089 | [11] -0.052 | [12] -0.02 | [13] -0.053 | pinometostat -0.122 | [14] 0.004 | [15] 0.022

COMMD4 (UniProt Q9H0A8)
inactive: erlotinib 0.041 | [1] 0.139 | [2] 0.055 | [3] 0.057 | [4] 0.013 | [5] 0.026 | [6] 0.046 | [7] 0.121 | [8] -0.116 | [9] -0.029 | IRAK-1-4 Inhibitor I 0.005 | ibrutinib -0.01 | [10] -0.049 | ralimetinib 0.018 | [11] -0.117 | [12] 0.018 | [13] -0.021 | pinometostat -0.083 | [14] 0.03 | [15] 0.118

CORO7 isoform 3 (UniProt P57737)
inactive: erlotinib 0.003 | [1] 0.016 | [2] 0.091 | [3] 0.002 | [4] -0.054 | [5] 0.089 | [6] 0.058 | [7] 0.022 | [8] -0.038 | [9] 0.018 | IRAK-1-4 Inhibitor I 0.014 | ibrutinib -0.009 | [10] 0.008 | ralimetinib 0.057 | [11] -0.009 | [12] -0.168 | [13] -0.008 | pinometostat -0.038 | [14] 0.051 | [15] 0.018

COPZ1 isoform 4 (UniProt P61923)
inactive: erlotinib -0.08 | [1] 0.101 | [2] 0.188 | [3] -0.001 | [4] 0.087 | [5] 0.085 | [6] 0.078 | [7] 0.066 | [8] -0.063 | [9] -0.134 | IRAK-1-4 Inhibitor I 0.049 | ibrutinib -0.016 | [10] -0.06 | ralimetinib -0.029 | [11] -0.002 | [12] -0.002 | [13] -0.025 | pinometostat -0.001 | [14] 0.038 | [15] 0.156

COPS6 (UniProt Q7L5N1)
inactive: erlotinib -0.065 | [1] 0.045 | [2] 0.038 | [3] 0 | [4] -0.034 | [5] 0.02 | [6] 0.112 | [7] -0.006 | [8] -0.034 | [9] 0.025 | IRAK-1-4 Inhibitor I 0.03 | ibrutinib 0.015 | [10] 0.007 | ralimetinib 0.031 | [11] -0.019 | [12] 0.009 | [13] -0.016 | pinometostat -0.049 | [14] 0.051 | [15] 0.003

COQ3 (UniProt Q9NZJ6)
inactive: erlotinib -0.035 | [1] 0.169 | [2] 0.053 | [3] 0.011 | [4] -0.008 | [5] 0.024 | [6] 0.04 | [7] 0.153 | [8] -0.111 | [9] 0.044 | IRAK-1-4 Inhibitor I 0.009 | ibrutinib 0.055 | [10] 0 | ralimetinib -0.008 | [11] -0.108 | [12] 0.071 | [13] 0.049 | pinometostat 0.009 | [14] -0.049 | [15] 0.1

CPNE1 (UniProt Q99829)
inactive: erlotinib 0.056 | [1] 0.019 | [2] 0.054 | [3] 0.008 | [4] 0.02 | [5] 0 | [6] -0.026 | [7] 0.041 | [8] 0.058 | [9] -0.009 | IRAK-1-4 Inhibitor I 0.003 | ibrutinib -0.025 | [10] 0.015 | ralimetinib -0.073 | [11] -0.028 | [12] 0.025 | [13] -0.005 | pinometostat -0.023 | [14] -0.033 | [15] -0.031

COLGALT1 (UniProt Q8NBJ5)
inactive: erlotinib -0.053 | [1] -0.03 | [2] -0.045 | [3] 0.033 | [4] -0.057 | [5] 0.004 | [6] -0.014 | [7] 0.062 | [8] -0.003 | [9] -0.018 | IRAK-1-4 Inhibitor I -0.068 | ibrutinib -0.081 | [10] 0.039 | ralimetinib 0.069 | [11] -0.024 | [12] -0.021 | [13] 0.023 | pinometostat 0.093 | [14] 0.028 | [15] 0.023

CRPPA (UniProt A4D126)
inactive: erlotinib 0.004 | [1] 0.02 | [2] 0.044 | [3] 0.008 | [4] 0.012 | [5] 0.039 | [6] -0.023 | [7] -0.003 | [8] -0.071 | [9] 0.03 | IRAK-1-4 Inhibitor I 0.019 | ibrutinib 0.027 | [10] -0.008 | ralimetinib -0.076 | [11] -0.013 | [12] 0.079 | [13] -0.043 | pinometostat -0.009 | [14] 0.012 | [15] -0.002

Reprinted from the entries so far (2 entries):
CORO7 isoform 3 (UniProt P57737)
inactive: erlotinib 0.003 | [1] 0.016 | [2] 0.091 | [3] 0.002 | [4] -0.054 | [5] 0.089 | [6] 0.058 | [7] 0.022 | [8] -0.038 | [9] 0.018 | IRAK-1-4 Inhibitor I 0.014 | ibrutinib -0.009 | [10] 0.008 | ralimetinib 0.057 | [11] -0.009 | [12] -0.168 | [13] -0.008 | pinometostat -0.038 | [14] 0.051 | [15] 0.018

COPZ1 isoform 4 (UniProt P61923)
inactive: erlotinib -0.08 | [1] 0.101 | [2] 0.188 | [3] -0.001 | [4] 0.087 | [5] 0.085 | [6] 0.078 | [7] 0.066 | [8] -0.063 | [9] -0.134 | IRAK-1-4 Inhibitor I 0.049 | ibrutinib -0.016 | [10] -0.06 | ralimetinib -0.029 | [11] -0.002 | [12] -0.002 | [13] -0.025 | pinometostat -0.001 | [14] 0.038 | [15] 0.156

Remaining list, next part.

COMMD7 (UniProt Q86VX2)
inactive: erlotinib -0.046 | [1] 0.024 | [2] -0.063 | [3] 0.048 | [4] 0.025 | [5] 0.061 | [6] -0.039 | [7] -0.012 | [8] -0.063 | [9] 0.017 | IRAK-1-4 Inhibitor I 0.072 | ibrutinib 0.035 | [10] 0.042 | ralimetinib 0.055 | [11] 0.072 | [12] -0.076 | [13] 0.03 | pinometostat -0.036 | [14] -0.096 | [15] 0.029

COX7A2L (UniProt O14548)
inactive: erlotinib -0.004 | [1] 0.08 | [2] 0.175 | [3] 0.062 | [4] 0.124 | [5] 0.054 | [6] 0.028 | [7] -0.014 | [8] 0.007 | [9] 0.041 | IRAK-1-4 Inhibitor I 0.005 | ibrutinib -0.016 | [10] -0.021 | ralimetinib -0.049 | [11] -0.01 | [12] -0.055 | [13] 0.029 | pinometostat -0.017 | [14] 0.008 | [15] 0.06

CRTAP (UniProt O75718)
inactive: erlotinib -0.083 | [1] -0.093 | [2] -0.084 | [3] 0.015 | [4] -0.037 | [5] -0.007 | [6] 0.017 | [7] -0.013 | [8] -0.024 | [9] -0.086 | IRAK-1-4 Inhibitor I -0.038 | ibrutinib -0.061 | [10] 0.031 | ralimetinib 0.072 | [11] 0.127 | [12] -0.078 | [13] 0.068 | pinometostat 0.053 | [14] 0.002 | [15] 0.048

COX11 (UniProt Q9Y6N1)
inactive: erlotinib -0.014 | [1] 0.074 | [2] 0.051 | [3] 0.073 | [4] 0.045 | [5] 0.025 | [6] 0.065 | [7] 0.049 | [8] -0.088 | [9] 0.029 | IRAK-1-4 Inhibitor I 0.013 | ibrutinib 0.021 | [10] -0.051 | ralimetinib -0.184 | [11] -0.032 | [12] 0.067 | [13] 0.044 | pinometostat -0.035 | [14] -0.053 | [15] 0.06

COPG2 (UniProt Q9UBF2)
inactive: erlotinib -0.017 | [1] 0.013 | [2] -0.026 | [3] -0.007 | [4] 0.036 | [5] -0.022 | [6] 0.015 | [7] 0.002 | [8] -0.039 | [9] 0.017 | IRAK-1-4 Inhibitor I -0.002 | ibrutinib -0.015 | [10] -0.015 | ralimetinib -0.001 | [11] 0 | [12] 0.088 | [13] -0.023 | pinometostat -0.008 | [14] -0.022 | [15] 0.035

COX10 (UniProt Q12887)
inactive: erlotinib 0.061 | [1] 0.037 | [2] 0.155 | [3] 0.175 | [4] 0.051 | [5] 0.108 | [6] -0.204 | [7] -0.048 | [8] 0.04 | [9] 0.021 | IRAK-1-4 Inhibitor I 0.01 | ibrutinib 0.035 | [10] -0.066 | ralimetinib -0.073 | [11] 0.108 | [12] -0.225 | [13] 0.163 | pinometostat 0.02 | [14] -0.122 | [15] 0.011

COPA isoform 2 (UniProt P53621)
inactive: erlotinib -0.036 | [1] 0.026 | [2] 0.049 | [3] 0 | [4] 0.024 | [5] 0.015 | [6] 0.027 | [7] -0.009 | [8] 0.015 | [9] 0.029 | IRAK-1-4 Inhibitor I -0.005 | ibrutinib -0.02 | [10] 0.01 | ralimetinib -0.014 | [11] -0.009 | [12] 0.076 | [13] -0.029 | pinometostat 0.011 | [14] -0.003 | [15] 0.007
